Measurements from patent publication US8524454 (RESEARCH FOUNDATION OF STATE UNIVERSITY OF NEW YORK, dated 2013).
These are yes or no findings as the source states them, for the method shown. Binding can be weak; no strength is given.

Columns and labels:
[1] = molecular target: transcobalamin receptor (TCblR) purified from human placenta (human); assay: radiolabeled TC-Cbl binding assay
[2] = molecular target: transcobalamin receptor (TCblR) purified from human placenta (human); assay: radiolabeled TC-Cbl binding assay (FIG. 6A)
[3] = molecular target: transcobalamin receptor (TCblR) purified from human placenta (human); assay: aminopropyl Cbl-TC affinity matrix, photo-dissociation, SDS-PAGE (FIG. 2)
[4] = molecular target: transcobalamin receptor (TCblR) purified from human placenta (human); assay: affinity capture of the receptor-TC-Cbl complex from solubilised placental membranes
[5] = molecular target: transcobalamin receptor (TCblR) purified from human placenta (human); assay: radiolabeled Cbl-TC binding to purified TCblR competed by unlabeled apo-TC (FIG. 12)

B1: holo-transcobalamin (recombinant human TC saturated with cobalamin) (ligand, UniProt P20062 19-427, looked up)
chain: EMCEIPEMDSHLVEKLGQHLLPWMDRLSLEHLNPSIYVGLRLSSLQAGTKEDLYLHSLKLGYQQCLLGSAFSEDDGDCQGKPSMGQLALYLLALRANCEFVRGHKGDRLVSQLKWFLEDEKRAIGHDHKGHPHTSYYQYGLGILALCLHQKRVHDSVVDKLLYAVEPFHQGHHSVDTAAMAGLAFTCLKRSNFNPGRRQRITMAIRTVREEILKAQTPEGHFGNVYSTPLALQFLMTSPMRGAELGTACLKARVALLASLQDGAFQNALMISQLLPVLNHKTYIDLIFPDCLAPRVMLEPAAETIPQTQEIISVTLQVLSLLPPYRQSISVLAGSTVEDVLKKAHELGGFTYETQASLSGPYLTSVMGKAAGEREFWQLLRDPNTPLLQGIADYRPKDGETIELRLVSW
notes: also called TC-Cbl; holo TC
binding [1]: binds
binding [2]: binds
binding [3]: binds
binding [4]: binds

B2: apo-transcobalamin (recombinant TC without cobalamin) (ligand, human, UniProt P20062 19-427, looked up)
chain: EMCEIPEMDSHLVEKLGQHLLPWMDRLSLEHLNPSIYVGLRLSSLQAGTKEDLYLHSLKLGYQQCLLGSAFSEDDGDCQGKPSMGQLALYLLALRANCEFVRGHKGDRLVSQLKWFLEDEKRAIGHDHKGHPHTSYYQYGLGILALCLHQKRVHDSVVDKLLYAVEPFHQGHHSVDTAAMAGLAFTCLKRSNFNPGRRQRITMAIRTVREEILKAQTPEGHFGNVYSTPLALQFLMTSPMRGAELGTACLKARVALLASLQDGAFQNALMISQLLPVLNHKTYIDLIFPDCLAPRVMLEPAAETIPQTQEIISVTLQVLSLLPPYRQSISVLAGSTVEDVLKKAHELGGFTYETQASLSGPYLTSVMGKAAGEREFWQLLRDPNTPLLQGIADYRPKDGETIELRLVSW
binding [5]: binds
